Our source for the binding values is PMC10810035.

Protein sequences, listed by entry. Tags and fused reporters are not part of them.
UniProt P46379: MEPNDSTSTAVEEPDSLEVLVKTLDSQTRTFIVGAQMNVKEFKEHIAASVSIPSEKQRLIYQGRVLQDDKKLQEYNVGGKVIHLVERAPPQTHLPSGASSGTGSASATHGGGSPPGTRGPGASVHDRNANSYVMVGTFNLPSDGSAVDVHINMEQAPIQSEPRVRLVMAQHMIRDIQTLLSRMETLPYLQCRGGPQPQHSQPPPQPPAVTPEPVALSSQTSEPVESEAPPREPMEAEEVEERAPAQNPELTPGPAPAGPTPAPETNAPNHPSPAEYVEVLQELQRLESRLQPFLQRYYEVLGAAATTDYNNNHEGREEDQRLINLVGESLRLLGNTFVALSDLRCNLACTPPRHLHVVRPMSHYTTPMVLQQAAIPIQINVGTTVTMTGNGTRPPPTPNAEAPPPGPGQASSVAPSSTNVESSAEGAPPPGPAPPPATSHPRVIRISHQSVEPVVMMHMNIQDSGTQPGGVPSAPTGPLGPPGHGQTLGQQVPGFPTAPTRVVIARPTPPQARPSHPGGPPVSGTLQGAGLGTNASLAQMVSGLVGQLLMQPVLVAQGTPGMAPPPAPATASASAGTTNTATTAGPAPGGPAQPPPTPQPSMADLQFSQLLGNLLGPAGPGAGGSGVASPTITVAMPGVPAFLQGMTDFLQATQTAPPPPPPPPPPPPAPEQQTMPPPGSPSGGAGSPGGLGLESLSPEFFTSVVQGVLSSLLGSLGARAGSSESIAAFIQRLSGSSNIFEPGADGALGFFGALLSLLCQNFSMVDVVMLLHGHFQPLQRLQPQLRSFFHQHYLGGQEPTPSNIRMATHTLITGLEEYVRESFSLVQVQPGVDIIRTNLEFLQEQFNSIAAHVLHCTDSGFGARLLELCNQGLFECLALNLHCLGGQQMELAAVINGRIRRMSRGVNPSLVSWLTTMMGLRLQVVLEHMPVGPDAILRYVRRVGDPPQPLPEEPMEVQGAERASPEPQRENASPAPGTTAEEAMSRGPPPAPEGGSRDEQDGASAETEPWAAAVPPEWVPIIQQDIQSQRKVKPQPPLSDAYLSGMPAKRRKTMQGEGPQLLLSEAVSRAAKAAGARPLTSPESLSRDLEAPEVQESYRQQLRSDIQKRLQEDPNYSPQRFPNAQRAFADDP

These are yes or no findings as the source states them, for the method shown. In cells and extracts the contact can be indirect. These calls come from enrichment with a bait or labelling near it, and not all partners need be listed. Tags and fused reporters may be left off the sequences shown.

In this test the target is T1, Flag-DERL2 (derlin 2) (human (cDNA amplified from QBC939 cells)) (UniProt Q9GZP9).
T1 sequence: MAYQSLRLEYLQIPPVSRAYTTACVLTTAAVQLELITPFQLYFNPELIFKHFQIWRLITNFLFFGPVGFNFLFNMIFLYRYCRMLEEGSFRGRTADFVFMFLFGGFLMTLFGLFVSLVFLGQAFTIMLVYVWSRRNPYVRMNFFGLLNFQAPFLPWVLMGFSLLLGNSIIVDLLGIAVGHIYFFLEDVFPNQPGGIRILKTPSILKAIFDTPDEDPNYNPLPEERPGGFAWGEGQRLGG
Briefly: affinity purification with mass spectrometry; 293T cells transfected with DERL2-Flag or empty vectors; DERL2-Flag complex captured by anti-Flag antibodies; mass spectrometry.

For “BAG6 (BAG cochaperone 6), endogenous (from UniProt P46379 1-1132)”, the binding result is recorded as “binds”.
